Test system: PC12/HttN90Q103 cells
Assay: ATPlite assay, rescue of HttN90Q103-induced cell death
Assay type: cell-based, rat
Conditions: single agent
From the text: In this stable PC12 line (PC12/HttN90Q103), transcription of the Htt transgene is driven by an ecdysone-regulated promoter such that the expression of HttN90Q103 can be turned on or off by the addition or removal of the non-steroidal ecdysone analog tebufenozide (teb).
Using the engineered PC12/HttN90Q103 cell line together with Perkin Elmer's ATPlite™ assay kit or CellTiter-Blue™ assay, a high throughput assay to screen small molecules for their ability to prevent mutant Htt exon 1-induced cell death was developed and optimized.
The following formulas were used to calculate mutant Htt-induced cytotoxicity and test compound rescue: % killing=[(un-induced−induced-DMSO treated)/un-induced]×100 % rescue=[(drug treated−induced-DMSO treated)/(un-induced−induced-DMSO treated)]×100
For single-agent ranking, the assay was performed in 384-well plates to obtain duplicate dose response curves in 12-step dilutions with a dosing ratio f=2 over 3 orders of magnitude. […]
Day 4—Perform ATPlite™ Assay • 1) Take plates out of the incubator. • 2) Using the PlateMate, add 40 μL of ATPlite™ 1-step solution (Perkin Elmer) to each well of the assay plates. • 3) Wait ten minutes to allow plates to dark-adapt. • 4) Read luminescence intensity in Wallac plate reader using […]

For O=C1NC(=O)C(c2ccccc2[N+](=O)[O-])=C1Nc1ccc(O)c(Cl)c1 [SB-415286], the “Max Effect (% rescue)” value (250 nM tebufenozide induction) was 52% and the EC50 (sigmoidal fit of 12-step dose response) was 12.9 µM.

From US20080044390A1, “Methods and compositions for the treatment of neurodegenerative disorders” (priority 2006, published 2008)
